Reference: doi:10.1101/2024.04.30.591927
No constants are given. Whether binding was seen depends on the method and setting. In cells and extracts the contact can be indirect. Some results given as binding are weak or reduced against the parent protein; the word gives no strength. Values belong to the substance of their own block, whether it stands above or below them.

Sequences of proteins named here, by UniProt entry; tags and fusion partners are left off. A change or cut given only in a name is not applied to a line headed by its entry.
UniProt Q62193: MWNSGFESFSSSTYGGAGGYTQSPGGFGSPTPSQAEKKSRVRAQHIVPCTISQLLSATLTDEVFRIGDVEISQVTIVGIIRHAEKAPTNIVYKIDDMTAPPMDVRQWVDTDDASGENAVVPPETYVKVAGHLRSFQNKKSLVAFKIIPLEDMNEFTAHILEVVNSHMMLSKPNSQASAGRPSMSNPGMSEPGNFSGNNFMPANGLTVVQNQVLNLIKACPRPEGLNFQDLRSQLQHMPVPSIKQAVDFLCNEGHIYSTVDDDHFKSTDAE
UniProt P97931: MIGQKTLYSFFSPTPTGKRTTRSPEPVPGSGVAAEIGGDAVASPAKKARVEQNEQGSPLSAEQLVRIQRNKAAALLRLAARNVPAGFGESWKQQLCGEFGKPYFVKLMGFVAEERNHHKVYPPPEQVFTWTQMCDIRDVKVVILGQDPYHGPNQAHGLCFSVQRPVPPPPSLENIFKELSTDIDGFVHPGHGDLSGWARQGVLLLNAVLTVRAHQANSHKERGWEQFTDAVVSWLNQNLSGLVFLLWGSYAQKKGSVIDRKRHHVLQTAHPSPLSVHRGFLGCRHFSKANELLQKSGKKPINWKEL

Legend:
Assay in all cases: co-IP
[1] = molecular target: myc-tagged murine RPA32, wild type, expressed in BOSC-23 cells (mouse) (UniProt Q62193)
[2] = molecular target: FLAG-tagged murine UNG (mUNG), wild type, expressed in 3T3-NTZ cells (mouse) (UniProt P97931)
[3] = molecular target: FLAG-tagged murine UNG R81C, expressed in 3T3-NTZ cells (mouse) (UniProt P97931)
[4] = molecular target: FLAG-tagged murine UNG (mUNG), wild type, expressed in BOSC-23 cells (mouse) (UniProt P97931)

binding [1]: binds
Substance: FLAG-tagged murine UNG (mUNG), wild type, expressed in BOSC-23 cells (from UniProt P97931 1-306) (enzyme)

binding [2]: binds
binding [3]: binds
Substance: endogenous murine RPA32 (3T3-NTZ cells) (from UniProt Q62193 1-270)

binding [4]: binds
Substance: myc-tagged murine RPA32, wild type, expressed in BOSC-23 cells (from UniProt Q62193 1-270)
